In paper PMC10245490:
Results are given in words; binding and its absence hold for the method and conditions named. Binding seen in cells or lysates may run through a third protein. Some binding calls cover weakened binding; strength is not graded here.

Chains of the proteins cited; added tags and fusions are not shown.
UniProt P21796: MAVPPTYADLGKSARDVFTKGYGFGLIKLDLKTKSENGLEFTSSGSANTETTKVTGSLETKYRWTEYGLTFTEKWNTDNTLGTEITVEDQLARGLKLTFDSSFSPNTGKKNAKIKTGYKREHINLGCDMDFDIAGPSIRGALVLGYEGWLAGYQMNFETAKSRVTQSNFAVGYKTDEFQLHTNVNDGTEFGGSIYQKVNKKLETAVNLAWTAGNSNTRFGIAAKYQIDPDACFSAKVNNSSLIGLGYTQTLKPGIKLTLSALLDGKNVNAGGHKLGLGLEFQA
UniProt P63172: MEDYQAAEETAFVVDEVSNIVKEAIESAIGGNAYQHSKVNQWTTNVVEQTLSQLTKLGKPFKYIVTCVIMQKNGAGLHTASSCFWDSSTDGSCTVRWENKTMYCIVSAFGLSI
UniProt O60260: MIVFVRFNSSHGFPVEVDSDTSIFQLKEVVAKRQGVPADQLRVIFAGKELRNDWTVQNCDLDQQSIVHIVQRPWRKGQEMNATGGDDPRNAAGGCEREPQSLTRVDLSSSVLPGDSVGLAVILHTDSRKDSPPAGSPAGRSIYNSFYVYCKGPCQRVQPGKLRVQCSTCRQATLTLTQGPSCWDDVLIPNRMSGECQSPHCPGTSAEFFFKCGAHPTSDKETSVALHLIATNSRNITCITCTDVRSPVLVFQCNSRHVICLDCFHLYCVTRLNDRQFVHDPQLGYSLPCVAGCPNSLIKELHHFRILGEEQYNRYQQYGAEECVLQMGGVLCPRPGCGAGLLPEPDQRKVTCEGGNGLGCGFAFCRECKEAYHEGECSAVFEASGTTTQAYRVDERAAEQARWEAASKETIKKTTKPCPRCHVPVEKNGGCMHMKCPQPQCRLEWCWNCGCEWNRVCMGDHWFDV

How the values were obtained:
[1] = target: voltage-dependent anion channel 1 (VDAC1) (human (endogenous in MCF-7 and MDA-MB-468)) (UniProt P21796); test: co-IP; endogenous proteins in MCF-7 and MDA-MB-468 breast cancer cells; which protein was precipitated is not given
[2] = target: voltage-dependent anion channel 1 (VDAC1) (human (endogenous in MCF-7 and MDA-MB-468)) (UniProt P21796); test: co-IP; MCF-7 and MDA-MB-468 breast cancer cells, also with stable DYNLT1 shRNA knock-down or control shRNA; which protein was precipitated is not given

Substance	binding [1]	binding [2]
DYNLT1 (Dynein Light Chain Tctex-Type 1) (from UniProt P63172 1-113)	binds	
E3 ligase Parkin (from UniProt O60260 1-465) (enzyme)		binds
